For assay [1], the target named is T1, SlWRKY80 in JW771 (N-Luc) (tomato (Solanum lycopersicum)) (UniProt K4BIZ9).
T1 sequence: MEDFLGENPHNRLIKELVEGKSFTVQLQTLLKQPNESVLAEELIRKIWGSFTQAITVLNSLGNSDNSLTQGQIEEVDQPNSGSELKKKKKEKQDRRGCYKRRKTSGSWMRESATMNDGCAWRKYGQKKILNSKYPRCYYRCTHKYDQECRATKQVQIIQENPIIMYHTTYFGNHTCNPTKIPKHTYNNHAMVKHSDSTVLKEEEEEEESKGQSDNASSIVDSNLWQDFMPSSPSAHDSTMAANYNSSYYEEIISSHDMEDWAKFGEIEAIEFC
As to the kind of experiment: split reporter; luciferase complementary imaging (LCI): JW771 (N-Luc) and JW772 (C-Luc) constructs co-infiltrated 1:1 into tobacco leaves; 48 h; 0.5 mM D-luciferin; CCD imaging.

Amino acid sequences for entries named in this document (tags omitted). A change or cut given only in a name is not applied to a line headed by its entry.
UniProt A0A3Q7FUH8: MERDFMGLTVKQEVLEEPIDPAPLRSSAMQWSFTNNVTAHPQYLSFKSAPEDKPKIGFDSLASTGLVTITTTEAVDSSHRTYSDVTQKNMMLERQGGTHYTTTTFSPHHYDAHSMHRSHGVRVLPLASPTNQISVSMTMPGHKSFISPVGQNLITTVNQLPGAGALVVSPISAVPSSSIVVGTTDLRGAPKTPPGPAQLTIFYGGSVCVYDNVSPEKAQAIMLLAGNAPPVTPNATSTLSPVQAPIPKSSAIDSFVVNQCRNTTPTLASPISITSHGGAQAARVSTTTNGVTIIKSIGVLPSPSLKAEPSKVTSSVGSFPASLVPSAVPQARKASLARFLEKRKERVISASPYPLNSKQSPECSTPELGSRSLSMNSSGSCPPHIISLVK
UniProt A0A3Q7H988: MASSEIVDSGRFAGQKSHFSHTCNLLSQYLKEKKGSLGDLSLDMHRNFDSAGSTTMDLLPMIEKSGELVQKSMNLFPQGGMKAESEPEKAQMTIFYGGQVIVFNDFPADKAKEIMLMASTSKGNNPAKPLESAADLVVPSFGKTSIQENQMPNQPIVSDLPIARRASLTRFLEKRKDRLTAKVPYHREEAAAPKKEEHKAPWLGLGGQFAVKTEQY
UniProt A7XXZ0: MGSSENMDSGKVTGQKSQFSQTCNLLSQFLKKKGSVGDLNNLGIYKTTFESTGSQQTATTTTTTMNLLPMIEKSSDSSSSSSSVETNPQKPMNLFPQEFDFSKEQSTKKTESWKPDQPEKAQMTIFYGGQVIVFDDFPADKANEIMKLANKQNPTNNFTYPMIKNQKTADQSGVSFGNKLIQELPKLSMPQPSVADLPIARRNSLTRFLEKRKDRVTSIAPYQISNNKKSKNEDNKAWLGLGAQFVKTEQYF

Assay [2] concerns the target T2, BD-SlWRKY80_(202-819bp) (tomato (Solanum lycopersicum)) (UniProt K4BIZ9).
T2 sequence: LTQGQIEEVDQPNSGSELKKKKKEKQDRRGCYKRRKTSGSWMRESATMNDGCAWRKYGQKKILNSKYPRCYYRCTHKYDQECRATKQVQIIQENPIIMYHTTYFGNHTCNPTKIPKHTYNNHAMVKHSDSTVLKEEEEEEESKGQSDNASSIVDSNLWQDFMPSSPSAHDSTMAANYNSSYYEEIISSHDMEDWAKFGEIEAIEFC
As to the kind of experiment: two-hybrid; BD-SlWRKY80(202-819bp) in pGBKT7 co-transformed with SlJAZ CDSs in pGADT7 into Y2H yeast; growth on DDO (SD/-Trp/-Leu) and QDO (SD/-Trp/-Leu/-His/-Ade), 28°C, 3-5 days.

Assay [3] addresses T3, GST-SlWRKY80 fusion protein (tomato (Solanum lycopersicum)) (UniProt K4BIZ9).
T3 sequence: T1 sequence
Kind of assay: pull-down; GST pull-down in vitro with purified GST-SlWRKY80 and MBP-SlJAZ1; method as in ref. 72; both purified.

Assay [4] concerns the target T4, SlWRKY80 in pSPYNE (tomato (Solanum lycopersicum)) (UniProt K4BIZ9).
T4 sequence: T1 sequence
As to the kind of experiment: split reporter; BiFC: pSPYNE and pSPYCE constructs co-infiltrated 1:1 into tobacco leaves; 48 h; confocal microscopy.

Results are given in words; binding and its absence hold for the method and conditions named. A result given as binding can be weak or reduced; the word gives no strength. For part of these data: Tags and fused reporters may be left off the sequences shown. For part of these data: Binding seen in cells or lysates may run through a third protein.

Consider “SlJAZ1 in JW772 (C-Luc) (tomato (Solanum lycopersicum))”, for which, in assay [1], the binding result is on record as “binds”.

In the case of “SlJAZ5 in pGADT7 (from UniProt A0A3Q7FUH8)”, the binding entry in assay [2] was “binds”. Consider “MBP-SlJAZ1 fusion protein (from UniProt A0A3Q7H988)”, for which the binding result in assay [3] is “binds”. Take “SlJAZ1 in pGADT7 (tomato (Solanum lycopersicum))”: the binding result in assay [2] is “binds”. As to SlJAZ2 in pGADT7 (from UniProt A7XXZ0), the binding result in assay [2] is given as “binds”.

For “SlJAZ1 in pSPYCE (tomato (Solanum lycopersicum))”, the binding entry in assay [4] is listed as “binds”.

The values above are taken from PMC10980716.
